These results are taken from article PMC11110260.

Amino acid sequences for entries named in this document (tags omitted). A change or cut given only in a name is not applied to a line headed by its entry.
UniProt Q92466: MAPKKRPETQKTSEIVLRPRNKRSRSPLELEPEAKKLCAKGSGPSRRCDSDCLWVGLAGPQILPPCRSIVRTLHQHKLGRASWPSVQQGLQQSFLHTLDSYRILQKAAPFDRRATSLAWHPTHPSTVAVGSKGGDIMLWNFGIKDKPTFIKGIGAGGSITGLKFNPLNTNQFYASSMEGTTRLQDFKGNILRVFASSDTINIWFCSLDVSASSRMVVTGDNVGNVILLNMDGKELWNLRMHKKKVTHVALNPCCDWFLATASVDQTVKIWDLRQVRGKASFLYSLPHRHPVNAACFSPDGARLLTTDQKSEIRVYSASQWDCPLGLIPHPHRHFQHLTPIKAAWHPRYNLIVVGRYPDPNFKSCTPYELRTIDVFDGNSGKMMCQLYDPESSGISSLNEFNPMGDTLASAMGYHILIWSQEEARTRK
UniProt Q04206: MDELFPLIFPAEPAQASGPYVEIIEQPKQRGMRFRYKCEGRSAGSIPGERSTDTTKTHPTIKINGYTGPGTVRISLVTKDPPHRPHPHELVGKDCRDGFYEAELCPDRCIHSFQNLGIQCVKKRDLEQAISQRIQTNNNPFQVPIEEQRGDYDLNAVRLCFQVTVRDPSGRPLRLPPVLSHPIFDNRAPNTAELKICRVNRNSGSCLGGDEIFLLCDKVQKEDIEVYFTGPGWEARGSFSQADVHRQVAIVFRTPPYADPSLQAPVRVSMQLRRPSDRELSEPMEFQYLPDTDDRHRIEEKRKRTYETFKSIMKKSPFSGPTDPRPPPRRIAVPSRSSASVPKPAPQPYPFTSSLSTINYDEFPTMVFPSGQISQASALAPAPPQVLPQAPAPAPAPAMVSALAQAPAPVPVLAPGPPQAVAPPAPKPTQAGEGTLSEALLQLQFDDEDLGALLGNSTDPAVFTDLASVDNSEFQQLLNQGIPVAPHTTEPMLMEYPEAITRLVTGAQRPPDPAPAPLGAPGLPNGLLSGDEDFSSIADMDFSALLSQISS

This experiment addresses DDB2^PCNA− (mutant form of DDB2 unable to interact with PCNA), His-tagged (UniProt Q92466). The experiment is described as follows: pull-down; lysates of HEK293 stable clones 7 d after UV-C irradiation (hypotonic buffer: 10 mM Tris-HCl pH 7.4, 2.5 mM MgCl2, 0.5% NP-40, 10 mM imidazole; sonicated), incubated with Ni-NTA resin overnight at 4 °C; His-tagged DDB2 held on the resin; washed with 50 mM Tris-HCl pH 7.4; Western blot with anti-NF-kB p65 and anti-DDB2. (A western blot detects proteins with antibodies after separation by electrophoresis.)

Results are given in words; binding and its absence hold for the method and conditions named. Binding seen in cells or lysates may run through a third protein. Binding can be weak; no strength is given.

“NF-kB (detected with anti-NF-kB p65) (from UniProt Q04206 1-551)”: the binding entry was “binds”.
